Test [1] has as its target T1, EAAT4, full-length glutamate transporter (rat) (UniProt O35921).
T1 sequence (looked up): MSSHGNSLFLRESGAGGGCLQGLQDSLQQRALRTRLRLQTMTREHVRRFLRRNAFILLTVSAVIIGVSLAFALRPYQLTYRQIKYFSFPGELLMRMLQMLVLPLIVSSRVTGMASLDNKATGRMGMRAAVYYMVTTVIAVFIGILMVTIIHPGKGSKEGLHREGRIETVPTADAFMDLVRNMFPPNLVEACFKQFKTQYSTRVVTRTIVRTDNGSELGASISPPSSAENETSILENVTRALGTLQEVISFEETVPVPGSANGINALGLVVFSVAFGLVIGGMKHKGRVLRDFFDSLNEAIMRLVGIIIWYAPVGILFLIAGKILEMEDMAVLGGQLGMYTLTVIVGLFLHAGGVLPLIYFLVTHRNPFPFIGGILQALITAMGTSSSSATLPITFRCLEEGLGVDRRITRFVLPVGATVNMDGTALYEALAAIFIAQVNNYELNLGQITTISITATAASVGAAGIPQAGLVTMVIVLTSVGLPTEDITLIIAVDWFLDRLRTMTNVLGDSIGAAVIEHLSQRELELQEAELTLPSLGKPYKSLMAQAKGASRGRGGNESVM
Put plainly: co-immunoprecipitation from solubilized rat brain.

Amino acid sequences for entries named in this document (tags omitted). A change or cut given only in a name is not applied to a line headed by its entry.
UniProt P04386: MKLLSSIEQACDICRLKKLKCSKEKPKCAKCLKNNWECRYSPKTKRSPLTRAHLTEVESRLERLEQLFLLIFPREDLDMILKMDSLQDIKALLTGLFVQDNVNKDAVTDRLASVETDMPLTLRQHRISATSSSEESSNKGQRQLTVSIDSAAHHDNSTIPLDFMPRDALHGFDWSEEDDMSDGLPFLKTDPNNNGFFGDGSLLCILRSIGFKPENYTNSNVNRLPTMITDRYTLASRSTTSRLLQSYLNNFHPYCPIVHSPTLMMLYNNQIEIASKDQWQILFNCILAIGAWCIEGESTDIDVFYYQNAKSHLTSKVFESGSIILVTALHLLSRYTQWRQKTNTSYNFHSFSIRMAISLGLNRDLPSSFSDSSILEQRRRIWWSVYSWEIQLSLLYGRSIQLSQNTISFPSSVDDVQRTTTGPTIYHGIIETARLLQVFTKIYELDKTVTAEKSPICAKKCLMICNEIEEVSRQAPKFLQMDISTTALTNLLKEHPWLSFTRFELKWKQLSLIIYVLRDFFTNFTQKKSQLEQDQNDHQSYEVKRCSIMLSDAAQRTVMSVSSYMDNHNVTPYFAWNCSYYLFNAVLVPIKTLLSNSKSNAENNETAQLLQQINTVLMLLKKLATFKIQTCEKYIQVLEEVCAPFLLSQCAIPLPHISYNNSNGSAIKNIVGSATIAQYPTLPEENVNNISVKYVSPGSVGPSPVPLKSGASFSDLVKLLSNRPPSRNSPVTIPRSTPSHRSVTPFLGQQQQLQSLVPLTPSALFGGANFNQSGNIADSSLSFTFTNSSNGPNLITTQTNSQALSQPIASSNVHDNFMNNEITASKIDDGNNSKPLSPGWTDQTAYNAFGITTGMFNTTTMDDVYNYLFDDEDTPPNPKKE
UniProt Q9QWN8: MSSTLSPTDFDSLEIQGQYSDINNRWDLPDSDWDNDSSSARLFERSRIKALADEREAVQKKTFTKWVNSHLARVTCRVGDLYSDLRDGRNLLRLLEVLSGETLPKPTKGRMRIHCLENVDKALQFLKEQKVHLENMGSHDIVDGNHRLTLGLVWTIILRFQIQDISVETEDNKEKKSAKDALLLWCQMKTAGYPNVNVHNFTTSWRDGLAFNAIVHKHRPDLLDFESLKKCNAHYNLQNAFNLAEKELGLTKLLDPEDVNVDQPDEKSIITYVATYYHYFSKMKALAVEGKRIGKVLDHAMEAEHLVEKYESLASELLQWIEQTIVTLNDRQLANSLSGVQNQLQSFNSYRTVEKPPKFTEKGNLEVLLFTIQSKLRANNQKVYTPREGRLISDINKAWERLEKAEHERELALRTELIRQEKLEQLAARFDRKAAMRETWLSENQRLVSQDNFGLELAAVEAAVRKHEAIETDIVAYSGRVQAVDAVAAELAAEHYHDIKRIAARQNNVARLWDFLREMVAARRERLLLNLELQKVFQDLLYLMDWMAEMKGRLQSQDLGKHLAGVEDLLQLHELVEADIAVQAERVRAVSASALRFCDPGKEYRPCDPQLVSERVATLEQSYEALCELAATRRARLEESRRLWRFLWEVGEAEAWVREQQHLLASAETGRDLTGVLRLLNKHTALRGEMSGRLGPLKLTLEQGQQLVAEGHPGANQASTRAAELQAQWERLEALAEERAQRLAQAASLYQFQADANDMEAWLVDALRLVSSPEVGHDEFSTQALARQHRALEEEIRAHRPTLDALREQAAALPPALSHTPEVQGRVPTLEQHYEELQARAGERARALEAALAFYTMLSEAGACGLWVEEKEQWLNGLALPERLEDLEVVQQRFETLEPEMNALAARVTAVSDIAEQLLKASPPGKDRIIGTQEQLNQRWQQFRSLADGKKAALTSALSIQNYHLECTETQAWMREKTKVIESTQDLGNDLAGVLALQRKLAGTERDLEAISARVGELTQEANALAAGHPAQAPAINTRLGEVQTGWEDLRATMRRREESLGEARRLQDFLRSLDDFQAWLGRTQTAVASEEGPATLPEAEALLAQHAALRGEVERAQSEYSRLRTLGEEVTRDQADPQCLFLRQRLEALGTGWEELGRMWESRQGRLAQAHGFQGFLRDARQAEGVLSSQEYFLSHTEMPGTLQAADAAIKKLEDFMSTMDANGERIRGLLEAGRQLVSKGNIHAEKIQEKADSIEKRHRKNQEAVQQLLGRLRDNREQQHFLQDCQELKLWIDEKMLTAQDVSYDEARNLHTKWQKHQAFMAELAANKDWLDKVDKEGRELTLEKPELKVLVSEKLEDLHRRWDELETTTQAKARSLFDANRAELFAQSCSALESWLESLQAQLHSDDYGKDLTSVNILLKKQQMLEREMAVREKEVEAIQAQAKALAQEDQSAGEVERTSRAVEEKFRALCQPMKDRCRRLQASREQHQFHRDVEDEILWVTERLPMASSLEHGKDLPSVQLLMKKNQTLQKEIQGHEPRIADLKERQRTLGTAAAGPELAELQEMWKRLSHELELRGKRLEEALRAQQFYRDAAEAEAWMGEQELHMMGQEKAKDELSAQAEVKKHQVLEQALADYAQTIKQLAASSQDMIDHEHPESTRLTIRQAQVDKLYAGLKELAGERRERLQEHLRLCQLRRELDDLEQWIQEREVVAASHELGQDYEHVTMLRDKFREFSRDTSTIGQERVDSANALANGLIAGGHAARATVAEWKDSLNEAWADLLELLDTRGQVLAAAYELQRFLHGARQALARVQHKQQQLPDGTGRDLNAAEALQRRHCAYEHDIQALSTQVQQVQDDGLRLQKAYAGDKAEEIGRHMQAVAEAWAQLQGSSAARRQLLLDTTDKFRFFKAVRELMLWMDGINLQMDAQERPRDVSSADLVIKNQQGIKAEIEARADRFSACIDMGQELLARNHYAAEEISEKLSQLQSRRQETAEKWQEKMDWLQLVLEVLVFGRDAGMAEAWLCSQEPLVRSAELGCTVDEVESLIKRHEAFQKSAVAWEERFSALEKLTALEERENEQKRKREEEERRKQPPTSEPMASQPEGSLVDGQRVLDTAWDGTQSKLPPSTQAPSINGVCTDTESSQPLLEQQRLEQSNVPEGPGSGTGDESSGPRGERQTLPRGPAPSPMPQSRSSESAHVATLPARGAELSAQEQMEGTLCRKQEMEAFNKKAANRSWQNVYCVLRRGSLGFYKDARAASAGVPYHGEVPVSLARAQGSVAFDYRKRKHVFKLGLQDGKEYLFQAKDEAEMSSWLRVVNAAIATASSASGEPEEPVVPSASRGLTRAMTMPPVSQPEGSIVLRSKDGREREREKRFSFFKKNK
UniProt O15085: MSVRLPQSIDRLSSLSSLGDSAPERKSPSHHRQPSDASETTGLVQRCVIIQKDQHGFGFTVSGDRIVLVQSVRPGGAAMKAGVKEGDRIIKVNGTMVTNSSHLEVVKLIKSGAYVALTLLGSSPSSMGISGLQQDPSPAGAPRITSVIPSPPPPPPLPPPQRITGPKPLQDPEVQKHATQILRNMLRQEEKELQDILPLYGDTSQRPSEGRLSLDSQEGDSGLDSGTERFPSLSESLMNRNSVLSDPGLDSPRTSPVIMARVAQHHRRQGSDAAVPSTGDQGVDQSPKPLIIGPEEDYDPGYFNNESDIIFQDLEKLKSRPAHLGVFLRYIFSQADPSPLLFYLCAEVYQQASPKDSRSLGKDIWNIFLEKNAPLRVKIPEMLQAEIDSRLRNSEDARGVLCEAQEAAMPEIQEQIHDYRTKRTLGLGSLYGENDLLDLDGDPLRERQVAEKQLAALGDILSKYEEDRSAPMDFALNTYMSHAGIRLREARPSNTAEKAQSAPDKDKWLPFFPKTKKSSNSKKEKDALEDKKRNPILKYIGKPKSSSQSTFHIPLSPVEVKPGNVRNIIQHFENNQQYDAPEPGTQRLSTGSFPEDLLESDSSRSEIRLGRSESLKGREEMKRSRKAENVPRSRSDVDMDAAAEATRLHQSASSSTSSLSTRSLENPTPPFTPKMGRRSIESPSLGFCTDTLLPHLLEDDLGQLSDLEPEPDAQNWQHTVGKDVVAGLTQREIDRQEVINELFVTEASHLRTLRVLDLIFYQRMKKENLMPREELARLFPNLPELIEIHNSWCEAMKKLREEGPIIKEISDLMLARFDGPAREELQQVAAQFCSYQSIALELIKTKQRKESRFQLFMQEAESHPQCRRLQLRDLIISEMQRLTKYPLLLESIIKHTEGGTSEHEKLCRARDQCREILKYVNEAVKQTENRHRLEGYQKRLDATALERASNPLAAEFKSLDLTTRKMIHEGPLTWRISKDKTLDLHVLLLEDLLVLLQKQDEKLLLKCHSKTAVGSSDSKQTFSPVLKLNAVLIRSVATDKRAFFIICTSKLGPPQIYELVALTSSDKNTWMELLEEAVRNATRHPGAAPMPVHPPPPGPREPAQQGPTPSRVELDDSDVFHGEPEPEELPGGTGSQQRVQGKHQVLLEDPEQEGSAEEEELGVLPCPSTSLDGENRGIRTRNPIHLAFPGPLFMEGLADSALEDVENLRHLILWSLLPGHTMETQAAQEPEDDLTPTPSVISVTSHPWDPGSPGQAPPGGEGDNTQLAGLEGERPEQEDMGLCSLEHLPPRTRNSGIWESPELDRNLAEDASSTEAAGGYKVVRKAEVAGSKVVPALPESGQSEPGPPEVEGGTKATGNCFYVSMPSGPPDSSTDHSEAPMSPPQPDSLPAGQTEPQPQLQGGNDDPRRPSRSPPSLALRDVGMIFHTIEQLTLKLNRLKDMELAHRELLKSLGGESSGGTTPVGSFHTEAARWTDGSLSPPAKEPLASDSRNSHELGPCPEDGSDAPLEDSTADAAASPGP
UniProt Q63686: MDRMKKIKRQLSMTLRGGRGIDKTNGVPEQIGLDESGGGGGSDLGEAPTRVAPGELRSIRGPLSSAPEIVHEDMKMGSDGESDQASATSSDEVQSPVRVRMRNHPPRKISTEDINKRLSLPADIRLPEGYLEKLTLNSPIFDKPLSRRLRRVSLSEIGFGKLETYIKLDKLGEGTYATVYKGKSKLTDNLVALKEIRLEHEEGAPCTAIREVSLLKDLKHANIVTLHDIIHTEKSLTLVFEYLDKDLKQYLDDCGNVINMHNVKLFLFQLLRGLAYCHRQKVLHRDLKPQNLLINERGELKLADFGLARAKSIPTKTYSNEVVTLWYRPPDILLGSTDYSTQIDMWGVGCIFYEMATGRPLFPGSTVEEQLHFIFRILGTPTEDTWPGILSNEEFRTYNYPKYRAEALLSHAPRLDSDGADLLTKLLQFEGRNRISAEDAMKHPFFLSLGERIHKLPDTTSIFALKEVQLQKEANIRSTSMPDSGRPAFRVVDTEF

The target of test [2] is T1, EAAT4, full-length glutamate transporter (rat). Nature of the test: co-immunoprecipitation in heterologous cells.
Test [3] concerns the target T2, EAAT4 amino terminus bait (initial 60 amino acids of EAAT4 in pGBKT7) (rat) (UniProt P04386+O35921). Nature of the test: yeast two-hybrid.
For test [4], the target named is T2, EAAT4 amino terminus bait (initial 60 amino acids of EAAT4 in pGBKT7) (rat). Put plainly: yeast two-hybrid, initial 60 amino acids of EAAT4 as bait against rat brain cDNA library.
The target of test [5] is T1, EAAT4, full-length glutamate transporter (rat). Nature of the test: co-immunoprecipitation.
Test [6] has the same target. Put plainly: summary of yeast two-hybrid and co-immunoprecipitation.
For test [7] the target is unchanged. Put plainly: co-immunoprecipitation from neonatal rat cerebellum, PCTAIRE-1 western blot. In general terms: A western blot detects proteins with antibodies after separation by electrophoresis.
For test [8] the target is unchanged. Put plainly: co-immunoprecipitation with anti-c-myc antibody from EAAT4 expressing HEK cells, EAAT4 western blot.
For test [9] the target is unchanged. Put plainly: co-immunoprecipitation from HEK-rEAAT4 cells with amino-terminal EAAT4 antibodies, anti-c-myc blot; also the reverse with anti-c-myc antibody.

These are yes or no findings as the source states them, for the method shown. For some assays here: In cells and extracts the contact can be indirect. Some binding calls cover weakened binding; strength is not graded here.

These results are taken from patent publication US6808893.

“GTRAP4-41 (glutamate transporter 4 associated protein), full-length (from UniProt Q9QWN8 2-2388)”: the binding result in test [1] is listed as “binds”.
Still for that read-out and setting: the result for “GTRAP4-48 (glutamate transporter 4 associated protein), full-length (from UniProt Q9ES67 1-1527)” reads “binds”.
Turning to “KIAA0380 (a close homolog of GTRAP4-48) (from UniProt O15085 1-1522)”, the binding result in test [2] was “binds”.
As to “PCTAIRE-1 yeast two-hybrid clone (>95% homology to the final 201 amino acids of rat PCTAIRE-1, in pACT2) (from UniProt Q63686 296-496) (enzyme)”, the binding result in test [3] and in test [4] was “binds” in each case.
Turning to “PCTAIRE-1, native, of rat cerebellum (doublet of 62 and 68 kDa) (from UniProt Q63686 1-496) (enzyme)”, the binding entry in [5], in test [6] and in test [7] was “binds” each time.
On to “myc-tagged PCTAIRE-1a (from UniProt Q63686 1-496) (enzyme)”, for which the binding entry in test [8] is recorded as “binds”.
On to “myc-tagged PCTAIRE-1b (from UniProt Q63686 65-496) (enzyme)”, for which the binding result in test [8] was “binds”.
As to “myc-tagged full-length GTRAP4-41 (from UniProt Q9QWN8 2-2388)”, the binding result in test [2] and in [9] was “binds” throughout.
Consider “myc-tagged full-length GTRAP4-48 (from UniProt Q9ES67 1-1527)”, for which the binding entry in test [2] and in test [9] was “binds” each time.
